From paper PMC10163288
The other results are listed elsewhere or left out.

B1: il2ra_site1_1z92_sap_11_mot_HHH_b1_00784_af2_000000189_0001_1_17_H_._HHH_b1_07621_af2_0001_0000200027_0000001_0_0001_af2pred_0001_af2pred_1_swapped (protein)
chain: SEVEETLHEAVEKNDEELLKRFIEIALRAAGDPKLVEKFLEILVKRLGLPPEVLERLRELLEELT
B2: il2ra_site2_3nfp_normal_mot_HHH_b1_05627_af2_000000038_0001_43_56_H_._HHH_b2_04217_0001_0000500030_0000001_0 (protein)
chain: SSSSDKAERYLEAALLLLEEAKEAGDEESAREIAEAALLLAENLGDEERFEQIREILEELSSSSS
B3: il2ra_site1_2b5i_normal_mot_HHH_b1_01495_af2_000000272_0001_42_56_H_._HHH_b1_06086_0001_0000200018_0000001_0_af2pred_dldesign_0_af2pred (protein)
chain: SSSSDEKYDELYDLVLEALRLKKAGKKEEALKKLEEALKLAKELGDEKLVKEIEYLLNLLKSSSS
B4: il2ra_site2_3nfp_sap_17_mot_HHH_b2_04319_af2_000000252_0001_42_56_H_._HHH_b2_08127_0001_0000100001_0000001_0_0001 (protein)
chain: SSSSDEEAEELVRMALRALERLLRRGDEEMVELTEEYLEAAIKLHNDEEAEELLEELKKEYSSSS
B5: il2ra_site1_1z92_sap_14_mot_HHH_b1_02241_000000292_0001_1_14_H_._HHH_b2_08217_0001_0000300021_0000001_1_0001 (protein)
chain: SSSSTREATRLVLEIVAKVAREFNLSEEELLELIKLADELLRKGYSEEEIEEILRELAEKSSSSS
B6: il2ra_site2_3nfp_sap_14_mot_HHH_b1_00159_af2_000000185_0001_1_18_H_._HHH_b2_01146_0001_0000200016_0000001_0_0001 (protein)
chain: SSSSDDAEEYLRAALALAREAIEEGDKELAEKILRLIAKAAEDAKDEEALKEAEELLKEVGSSSS
B7: il2ra_site2_3nfp_normal_mot_HHH_b1_00660_af2_000000090_0001_40_57_H_._HHH_b1_08382_0001_0000600040_0000001_0_af2pred_0001_af2pred (protein)
chain: SSSSSSEEVEELIRQAEELLKEGNPEEAEELLRRAAHLAAELGDFELFTLIHAALEEVEHSSSSS
B8: il2ra_site1_1z92_sap_19_mot_HHH_b1_03465_af2_000000044_0001_40_52_H_._HHH_b1_05000_af2_0001_0000600027_0000001_0_0001_af2pred_0001_af2pred_1 (protein)
chain: SEELREEAERLAGGDPELALLIFDALFALKNGVPPRDIELVLKNAAELSGIPPEKVEEALELAEP
B9: il2ra_site1_2b5i_normal_mot_HHH_b2_04910_000000118_0001_1_19_H_._HHH_b2_01005_0001_0000600047_0000001_0_af2pred_dldesign_0_af2pred (protein)
chain: SSSSSPEGKKLRELFEKAEELFKAGKPEEAKKVLEEALELAKKLGMTSMLKMIESALKEISSSSS
B10: il2ra_site1_3nfp_normal_mot_HHH_b2_05101_000000267_0001_1_16_H_._ems_3hM_201_0001_0001100032_0000001_1 (protein)
chain: DRESAEASDLLIKVAAKLQNRNVDPEEVERVIQEVAEELREEIQNPEAREAVQFAAEFLIERVCS

Target: il2ra, P01589
Test: yeast display titration

Apparent Kd, inactive:
B1 no binding seen, B2 no binding seen, B3 no binding seen, B4 no binding seen, B5 no binding seen, B6 no binding seen, B7 no binding seen, B8 no binding seen, B9 no binding seen, B10 no binding seen
